Source: the supplement of paper PMC12819154, “High-throughput peptide-centric local stability assay extends protein–ligand identification to membrane proteins, tissues and bacteria” (Nature Structural & Molecular Biology, 2025)
The other results are listed elsewhere or left out. Most entries show no effect beyond the scatter of the controls.

Sequences of proteins named here, by UniProt entry; tags and fusion partners are left off. A change or cut given only in a name is not applied to a line headed by its entry.
UniProt P22361, whole entry: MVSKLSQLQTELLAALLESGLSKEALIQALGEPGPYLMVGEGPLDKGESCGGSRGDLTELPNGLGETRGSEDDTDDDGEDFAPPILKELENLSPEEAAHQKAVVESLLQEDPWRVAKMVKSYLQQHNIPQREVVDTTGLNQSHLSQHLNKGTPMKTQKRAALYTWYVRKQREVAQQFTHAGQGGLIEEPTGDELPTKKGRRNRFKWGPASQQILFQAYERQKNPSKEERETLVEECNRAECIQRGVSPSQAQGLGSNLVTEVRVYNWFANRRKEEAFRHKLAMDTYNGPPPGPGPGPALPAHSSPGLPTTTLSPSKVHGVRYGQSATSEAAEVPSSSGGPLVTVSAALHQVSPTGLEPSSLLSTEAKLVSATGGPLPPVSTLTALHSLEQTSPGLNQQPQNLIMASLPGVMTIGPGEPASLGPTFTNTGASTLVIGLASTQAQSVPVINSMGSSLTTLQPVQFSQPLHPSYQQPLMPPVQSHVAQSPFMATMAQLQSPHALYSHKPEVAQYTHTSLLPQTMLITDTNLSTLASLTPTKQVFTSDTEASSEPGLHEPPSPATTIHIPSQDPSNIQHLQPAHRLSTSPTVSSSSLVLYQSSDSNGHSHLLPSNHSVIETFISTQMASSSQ
UniProt P19324: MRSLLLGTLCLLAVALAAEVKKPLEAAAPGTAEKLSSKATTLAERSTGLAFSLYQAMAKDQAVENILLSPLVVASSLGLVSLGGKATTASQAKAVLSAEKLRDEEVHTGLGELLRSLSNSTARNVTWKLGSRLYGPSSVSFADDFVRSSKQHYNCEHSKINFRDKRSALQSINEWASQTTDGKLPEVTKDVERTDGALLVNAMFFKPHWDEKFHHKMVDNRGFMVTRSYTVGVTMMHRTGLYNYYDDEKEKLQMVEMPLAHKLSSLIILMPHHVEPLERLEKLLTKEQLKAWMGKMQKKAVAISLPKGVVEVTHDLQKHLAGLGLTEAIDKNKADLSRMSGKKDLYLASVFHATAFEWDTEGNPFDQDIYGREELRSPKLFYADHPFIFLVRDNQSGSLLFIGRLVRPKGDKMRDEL
UniProt P28235: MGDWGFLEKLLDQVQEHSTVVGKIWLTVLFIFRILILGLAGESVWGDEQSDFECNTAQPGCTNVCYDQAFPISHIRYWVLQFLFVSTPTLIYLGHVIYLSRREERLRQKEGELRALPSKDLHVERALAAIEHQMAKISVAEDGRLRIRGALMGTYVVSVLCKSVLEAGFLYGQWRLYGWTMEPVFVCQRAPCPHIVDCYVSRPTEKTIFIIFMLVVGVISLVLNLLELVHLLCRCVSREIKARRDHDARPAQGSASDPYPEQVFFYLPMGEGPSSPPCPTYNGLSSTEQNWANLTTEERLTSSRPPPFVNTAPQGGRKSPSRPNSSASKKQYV
UniProt P28352, whole entry: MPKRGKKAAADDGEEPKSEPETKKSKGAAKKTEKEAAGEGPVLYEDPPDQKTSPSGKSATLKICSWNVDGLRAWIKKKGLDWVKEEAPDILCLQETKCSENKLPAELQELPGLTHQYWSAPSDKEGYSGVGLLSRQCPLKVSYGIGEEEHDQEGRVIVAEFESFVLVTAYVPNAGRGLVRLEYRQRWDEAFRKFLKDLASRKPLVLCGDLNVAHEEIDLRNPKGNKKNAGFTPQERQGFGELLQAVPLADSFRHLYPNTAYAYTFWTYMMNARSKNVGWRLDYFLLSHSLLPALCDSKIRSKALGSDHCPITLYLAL
UniProt P29351: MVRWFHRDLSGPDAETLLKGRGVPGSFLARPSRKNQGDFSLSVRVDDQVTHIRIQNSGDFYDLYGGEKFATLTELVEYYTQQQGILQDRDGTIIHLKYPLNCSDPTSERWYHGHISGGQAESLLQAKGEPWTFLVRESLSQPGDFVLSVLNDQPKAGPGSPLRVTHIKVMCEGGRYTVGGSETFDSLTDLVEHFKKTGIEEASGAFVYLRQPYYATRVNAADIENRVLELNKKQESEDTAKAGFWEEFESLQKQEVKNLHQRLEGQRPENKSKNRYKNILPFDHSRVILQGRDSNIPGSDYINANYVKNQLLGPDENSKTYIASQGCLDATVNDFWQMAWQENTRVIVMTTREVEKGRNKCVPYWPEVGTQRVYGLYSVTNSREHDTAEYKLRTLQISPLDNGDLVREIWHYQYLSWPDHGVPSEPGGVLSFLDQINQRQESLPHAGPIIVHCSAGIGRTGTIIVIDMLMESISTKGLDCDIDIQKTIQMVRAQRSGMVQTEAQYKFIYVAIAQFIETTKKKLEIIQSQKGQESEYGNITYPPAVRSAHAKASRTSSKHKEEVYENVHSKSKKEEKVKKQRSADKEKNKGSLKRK
UniProt P20152, whole entry: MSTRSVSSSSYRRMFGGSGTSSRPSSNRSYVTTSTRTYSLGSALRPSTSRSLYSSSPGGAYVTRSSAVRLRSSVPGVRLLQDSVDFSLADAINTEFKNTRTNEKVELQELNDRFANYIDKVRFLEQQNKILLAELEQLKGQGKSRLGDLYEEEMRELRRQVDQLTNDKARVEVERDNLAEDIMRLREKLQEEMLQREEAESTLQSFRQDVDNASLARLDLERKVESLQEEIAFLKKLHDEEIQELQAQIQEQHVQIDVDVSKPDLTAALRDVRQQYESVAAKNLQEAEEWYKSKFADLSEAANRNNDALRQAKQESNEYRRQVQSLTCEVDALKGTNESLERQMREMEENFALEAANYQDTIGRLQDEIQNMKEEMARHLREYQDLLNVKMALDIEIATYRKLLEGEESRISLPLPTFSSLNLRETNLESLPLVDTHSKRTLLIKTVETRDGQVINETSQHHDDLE
UniProt P16951: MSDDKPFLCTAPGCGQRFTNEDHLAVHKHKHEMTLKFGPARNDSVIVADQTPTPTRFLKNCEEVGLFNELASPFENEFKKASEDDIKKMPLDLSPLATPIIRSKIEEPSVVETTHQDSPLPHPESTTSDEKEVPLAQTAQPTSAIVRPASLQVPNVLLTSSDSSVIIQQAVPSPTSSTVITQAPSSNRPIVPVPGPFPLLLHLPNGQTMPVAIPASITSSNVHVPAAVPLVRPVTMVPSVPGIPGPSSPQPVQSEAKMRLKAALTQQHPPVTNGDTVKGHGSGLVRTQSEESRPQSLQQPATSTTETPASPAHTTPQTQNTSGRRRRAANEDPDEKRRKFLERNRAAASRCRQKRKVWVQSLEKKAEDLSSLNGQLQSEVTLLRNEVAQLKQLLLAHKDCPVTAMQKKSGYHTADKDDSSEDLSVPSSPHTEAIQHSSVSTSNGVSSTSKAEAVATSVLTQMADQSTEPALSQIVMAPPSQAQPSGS
UniProt P27546: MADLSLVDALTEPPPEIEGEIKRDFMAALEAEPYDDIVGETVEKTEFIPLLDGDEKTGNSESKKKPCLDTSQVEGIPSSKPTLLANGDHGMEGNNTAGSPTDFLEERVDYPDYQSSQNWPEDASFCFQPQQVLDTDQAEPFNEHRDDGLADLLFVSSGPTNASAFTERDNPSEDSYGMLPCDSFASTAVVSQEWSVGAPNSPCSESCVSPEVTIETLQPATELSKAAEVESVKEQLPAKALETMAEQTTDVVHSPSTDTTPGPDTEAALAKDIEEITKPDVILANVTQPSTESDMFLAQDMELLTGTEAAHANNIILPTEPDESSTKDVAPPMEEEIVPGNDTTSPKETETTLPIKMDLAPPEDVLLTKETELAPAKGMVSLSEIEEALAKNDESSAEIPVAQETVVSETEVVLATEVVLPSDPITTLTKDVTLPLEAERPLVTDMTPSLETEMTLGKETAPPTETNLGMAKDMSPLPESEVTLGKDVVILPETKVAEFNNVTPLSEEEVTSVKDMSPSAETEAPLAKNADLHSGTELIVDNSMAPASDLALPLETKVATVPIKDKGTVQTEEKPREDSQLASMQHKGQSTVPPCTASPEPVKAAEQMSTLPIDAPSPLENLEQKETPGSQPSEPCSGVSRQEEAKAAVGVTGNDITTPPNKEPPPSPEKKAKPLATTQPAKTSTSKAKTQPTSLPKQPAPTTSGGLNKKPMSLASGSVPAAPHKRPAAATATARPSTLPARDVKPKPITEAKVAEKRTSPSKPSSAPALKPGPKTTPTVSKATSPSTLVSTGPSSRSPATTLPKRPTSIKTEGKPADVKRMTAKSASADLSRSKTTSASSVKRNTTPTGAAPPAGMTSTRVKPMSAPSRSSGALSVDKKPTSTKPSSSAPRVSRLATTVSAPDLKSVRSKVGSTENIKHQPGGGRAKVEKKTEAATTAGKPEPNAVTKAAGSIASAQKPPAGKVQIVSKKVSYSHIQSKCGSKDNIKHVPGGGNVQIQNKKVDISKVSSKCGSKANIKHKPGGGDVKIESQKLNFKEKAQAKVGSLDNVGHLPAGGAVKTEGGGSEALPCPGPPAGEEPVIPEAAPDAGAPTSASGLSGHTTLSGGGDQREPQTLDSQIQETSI
UniProt P22272: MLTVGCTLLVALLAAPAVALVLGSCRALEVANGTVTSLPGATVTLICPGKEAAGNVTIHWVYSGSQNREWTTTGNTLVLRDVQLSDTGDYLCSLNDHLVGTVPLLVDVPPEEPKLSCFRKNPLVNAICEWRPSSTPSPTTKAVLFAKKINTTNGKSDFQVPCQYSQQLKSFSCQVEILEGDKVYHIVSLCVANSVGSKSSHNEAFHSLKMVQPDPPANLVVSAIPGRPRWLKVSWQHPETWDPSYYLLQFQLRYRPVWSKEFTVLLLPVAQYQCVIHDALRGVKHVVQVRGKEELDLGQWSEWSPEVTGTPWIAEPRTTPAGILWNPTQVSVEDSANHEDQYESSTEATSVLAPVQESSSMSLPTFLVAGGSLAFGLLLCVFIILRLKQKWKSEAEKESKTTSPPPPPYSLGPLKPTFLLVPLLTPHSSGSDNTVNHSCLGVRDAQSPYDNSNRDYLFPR
UniProt P16015: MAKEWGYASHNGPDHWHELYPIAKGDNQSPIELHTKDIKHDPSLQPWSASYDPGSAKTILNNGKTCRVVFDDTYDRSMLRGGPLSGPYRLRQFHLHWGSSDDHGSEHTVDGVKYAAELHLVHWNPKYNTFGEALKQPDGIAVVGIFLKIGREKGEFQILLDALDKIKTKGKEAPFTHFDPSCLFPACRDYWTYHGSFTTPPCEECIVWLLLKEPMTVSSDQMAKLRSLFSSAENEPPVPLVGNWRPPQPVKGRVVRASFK
UniProt P17809: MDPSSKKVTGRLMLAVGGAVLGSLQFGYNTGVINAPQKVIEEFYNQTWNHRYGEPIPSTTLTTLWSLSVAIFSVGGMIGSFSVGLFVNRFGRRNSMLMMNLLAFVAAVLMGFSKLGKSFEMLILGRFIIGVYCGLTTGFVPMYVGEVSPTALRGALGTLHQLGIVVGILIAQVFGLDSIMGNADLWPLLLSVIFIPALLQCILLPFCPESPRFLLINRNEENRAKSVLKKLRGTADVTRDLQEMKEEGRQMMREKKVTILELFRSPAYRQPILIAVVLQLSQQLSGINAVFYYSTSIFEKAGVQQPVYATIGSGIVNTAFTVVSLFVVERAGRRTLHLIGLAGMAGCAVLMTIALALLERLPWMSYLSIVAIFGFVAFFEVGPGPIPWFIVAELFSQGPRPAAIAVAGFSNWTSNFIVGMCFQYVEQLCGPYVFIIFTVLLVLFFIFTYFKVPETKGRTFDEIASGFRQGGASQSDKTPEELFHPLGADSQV
UniProt P18760, whole entry: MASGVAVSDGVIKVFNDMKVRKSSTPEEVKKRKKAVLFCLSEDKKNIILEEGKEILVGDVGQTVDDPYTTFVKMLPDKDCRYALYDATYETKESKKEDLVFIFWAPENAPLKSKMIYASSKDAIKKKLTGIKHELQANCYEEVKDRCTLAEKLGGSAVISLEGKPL
UniProt P28662: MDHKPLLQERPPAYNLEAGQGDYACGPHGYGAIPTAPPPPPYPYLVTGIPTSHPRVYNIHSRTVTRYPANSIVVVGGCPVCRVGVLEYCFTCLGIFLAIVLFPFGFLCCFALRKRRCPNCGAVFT
UniProt P16381: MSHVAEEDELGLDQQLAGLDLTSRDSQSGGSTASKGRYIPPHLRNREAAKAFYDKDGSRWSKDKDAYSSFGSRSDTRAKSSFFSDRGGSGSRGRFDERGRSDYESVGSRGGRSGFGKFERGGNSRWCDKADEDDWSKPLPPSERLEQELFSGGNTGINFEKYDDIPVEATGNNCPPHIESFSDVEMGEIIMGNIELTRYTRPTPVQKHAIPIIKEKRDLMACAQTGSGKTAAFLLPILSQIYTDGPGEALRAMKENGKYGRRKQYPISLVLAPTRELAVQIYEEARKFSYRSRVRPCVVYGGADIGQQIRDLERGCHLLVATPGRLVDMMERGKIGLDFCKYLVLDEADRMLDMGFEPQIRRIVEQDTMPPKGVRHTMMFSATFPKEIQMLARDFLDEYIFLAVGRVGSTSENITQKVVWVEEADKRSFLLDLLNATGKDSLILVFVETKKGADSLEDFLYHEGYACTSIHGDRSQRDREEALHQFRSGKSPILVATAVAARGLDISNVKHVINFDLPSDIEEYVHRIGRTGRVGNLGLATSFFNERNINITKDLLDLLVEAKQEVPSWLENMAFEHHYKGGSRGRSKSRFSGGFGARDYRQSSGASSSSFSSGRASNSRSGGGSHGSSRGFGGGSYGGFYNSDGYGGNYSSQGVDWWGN

Compound: CN[C@@H]1C[C@H]2O[C@@](C)([C@@H]1OC)n1c3ccccc3c3c4c(c5c6ccccc6n2c5c31)C(=O)NC4 [staurosporine]
Assay: log2 fold change of tryptic peptide abundance, ligand vs vehicle (limited proteolysis) (log2 ratio); higher = more trypsin-susceptible (destabilized)
Details: ligand concentration: 20 uM; sample: mouse liver crude lysate; replicate design: treated separately

Target	log2 fold change
UniProt P22361 (peptide sequence: AALYTWYVR, peptide start residue: 160)	-0.217
UniProt P26350 (peptide sequence: KEVVEEAENGR, peptide start residue: 21)	0.12
UniProt P19324 (peptide sequence: SYTVGVTMMHR, peptide start residue: 228)	0.206
UniProt P17225 (peptide sequence: EGQEDQGLTKDYGSSPLHR, peptide start residue: 443)	-0.146
UniProt P27699 (peptide sequence: KILNELSSDVPGIPK, peptide start residue: 136)	-0.364
UniProt P27773 (peptide sequence: KFISDKDASVVGFFR, peptide start residue: 147)	-0.495
UniProt P28661 (peptide sequence: AQCIQSMTR, peptide start residue: 409)	-0.175
UniProt P24063 (peptide sequence: DMGCLEPLRESDKD, peptide start residue: 1149)	-0.395
UniProt P28235 (peptide sequence: ALAAIEHQMAK, peptide start residue: 126)	-0.0712
UniProt P28352 (peptide sequence: AAADDGEEPKSEPETK, peptide start residue: 8)	0.152
UniProt P27808 (peptide sequence: KGVSHGQFFDQHLK, peptide start residue: 319)	-0.949
UniProt P29351 (peptide sequence: DGTIIHLK, peptide start residue: 90)	0.244
UniProt P28271 (peptide sequence: EVYQKIETVNK, peptide start residue: 611)	-0.433
UniProt P20152 (peptide sequence: DGQVINETSQHHDDLE, peptide start residue: 451)	-0.121
UniProt P16951 (peptide sequence: LKAALTQQHPPVTNGDTVK, peptide start residue: 260)	-0.231
UniProt P22227 (peptide sequence: FSLDFNLR, peptide start residue: 364)	0.293

Some of the entries above in a different format.
Target,log2 fold change
"UniProt P28235 (peptide sequence: ALAAIEHQMAK, peptide start residue: 126)",-0.0712
"UniProt P22227 (peptide sequence: FSLDFNLR, peptide start residue: 364)",0.293

Later entries

Target	log2 fold change
UniProt P27546 (peptide sequence: VSYSHIQSKCGSKDNIK, peptide start residue: 972)	1.03
UniProt P22272 (peptide sequence: DAQSPYDNSNR, peptide start residue: 444)	-0.159
UniProt P16015 (peptide sequence: EPMTVSSDQMAK, peptide start residue: 213)	0.484
UniProt P21440 (peptide sequence: GNVTMDEIEK, peptide start residue: 492)	-0.521
UniProt P23506 (peptide sequence: MKPLMGVIYVPLTDKEK, peptide start residue: 205)	-0.204
UniProt P23927 (peptide sequence: RPFFPFHSPSR, peptide start residue: 12)	-0.262
UniProt P17809 (peptide sequence: LRGTADVTR, peptide start residue: 231)	-0.448
UniProt P18760 (peptide sequence: KSSTPEEVK, peptide start residue: 22)	0.19
UniProt P16056 (peptide sequence: WMALESLQTQK, peptide start residue: 1247)	-0.323
UniProt P22599 (peptide sequence: MQHLEQTLNK, peptide start residue: 278)	0.141
UniProt P28662 (peptide sequence: VYNIHSR, peptide start residue: 56)	-0.14
UniProt P16110 (peptide sequence: QDNNWGKEER, peptide start residue: 191)	-0.798
UniProt P21107 (peptide sequence: LVIIEGDLERTEER, peptide start residue: 170)	0.18
UniProt P16381 (peptide sequence: SGKSPILVATAVAAR, peptide start residue: 489)	-0.149
UniProt P33609 (peptide sequence: NEPLLTPIPLK, peptide start residue: 220)	-0.623
